Where “and” joins values, the source holds several entries; their conditions need not be identical. Identical values can stand only once.
Target: T1, thromboxane synthase (Guinea Pig Lung Microsomes) (Cavia porcellus, UniProt H0UT36)
T1 construct: The lungs were removed, freed of trachea and the majority of blood removed by rinsing the lungs with buffer; from tissue; host or cells: lungs of male guinea pigs (microsomes, 110,000 g pellet)
Assay: biochemical
Conditions: enzyme source G = Guinea Pig Lung Microsomes
Procedure: In said assay procedure, microsomes from guinea pig lung or human platelets are added to an endoperoxide intermediate in prostaglandin biosynthesis and the inhibitor in phosphate buffer solution followed by incubation, extraction and determination of the extent of thromboxane synthase inhibition by TLC with radiochromatographic profile analysis. […]
Isolation of Guinea Pig Lung Microsomes
Four male guinea pigs (.congruent.500 g each) were sacrificed by spinal dislocation. The lungs were removed, freed of trachea and the majority of blood removed by rinsing the lungs with buffer (0.1M phosphate pH 7.5) via the pulmonary artery. The lung tissue (18.3 g total wet wt.), was then minced, suspended in three volumes of buffer and homogenized using, initially, a Brinkmann polytron homogenizer and, finally, a glass-teflon tissue grinder. The homogenate was centrifuged at 12,000 g for 1 hr. and the resultant supernatant recentrifuged at 110,000 g for 1 hr. […]
The extract was applied to an I.T.L.C., type SG, glass fiber sheet (Gelman Instrument Co., Ann Arbor, Mich.) and developed in isooctane; methyl ethyl ketone: acetic acid (100:19:1 or 100:9:1) (19). […] In certain cases, based on the radiochromatographic profile obtained, the sheets were cut, the appropriate regions placed in scintillation vials, 10 ml of LSC cocktail (Yorktown Research, S. Hackensack, NJ) added, and the relative cpm determined.

Protein sequences, listed by entry. Tags and fused reporters are not part of them.
UniProt H0UT36, entry or part of it: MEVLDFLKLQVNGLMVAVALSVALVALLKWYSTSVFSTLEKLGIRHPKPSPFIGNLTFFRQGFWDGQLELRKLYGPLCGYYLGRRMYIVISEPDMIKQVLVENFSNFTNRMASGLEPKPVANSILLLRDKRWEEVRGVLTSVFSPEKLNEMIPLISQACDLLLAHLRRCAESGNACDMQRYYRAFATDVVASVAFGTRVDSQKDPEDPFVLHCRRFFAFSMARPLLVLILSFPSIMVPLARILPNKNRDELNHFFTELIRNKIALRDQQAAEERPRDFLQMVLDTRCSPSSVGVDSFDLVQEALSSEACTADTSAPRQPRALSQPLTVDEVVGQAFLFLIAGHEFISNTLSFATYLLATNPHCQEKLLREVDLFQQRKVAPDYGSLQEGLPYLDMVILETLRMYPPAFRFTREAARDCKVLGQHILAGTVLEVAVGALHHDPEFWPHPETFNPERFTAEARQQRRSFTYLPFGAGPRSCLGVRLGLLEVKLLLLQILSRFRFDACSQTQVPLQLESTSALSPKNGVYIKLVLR

SMILES	IC50
Clc1ccc(COC(Cn2ccnc2)c2ccc(Cl)cc2Cl)c(Cl)c1 (centres unmarked) [1-[2-(2,4-dichlorophenyl)-2-[(2,4-dichlorophenyl)-methoxy]ethyl]-1H--imidazole, reference compound]	> 100 µM and < 1000 µM
Clc1ccccc1C(c1ccccc1)(c1ccccc1)n1ccnc1 [1-[(2-chlorophenyl)diphenylmethyl]-1H--imidazole, reference compound]	10 to 100 µM

From US4731363A, “Thromboxane synthase inhibitors as insulin lowering agents and antiobesity agents” (priority 1986, dated 1988)
